# Taken from: PubChem BioAssay AID743121 (NCATS, 2013)
# Screen: 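Partners whose loss is lethal together with topoisomerase I blockade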 (primary screen)
# System: MDA-MB-231 cells, a human breast cancer line
# Reagent: single siRNA against human genes, 20 nM siRNA (0.8 pmol per well)
# Time to read-out: 120 h (drug added 48 h after transfection, read 72 h later)
# Conditions: camptothecin 20 nM (about EC30) for 72 h; vehicle 0.1% DMSO in parallel plates
# Measured: 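Cell viability by ATP luminescence (CellTiter-Glo) as % of non-targeting siRNA wells, and the log2 ratio of viability without drug over viability with camptothecin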
# Reading the numbers: log2 vehicle/camptothecin viability: higher = stronger sensitisation to camptothecin; viability with camptothecin: higher = more viable cells
# Call rule: 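Each gene scored by redundant siRNA activity (RSA) over its individual siRNA ratios; a gene is called active at p < 0.001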
# The whole screen tested about 26,000 reagents; this is a part drawn at random. 167 of all reagents (0.63%) were called active. 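Calls are per gene from RSA p-values that are not deposited; an individual active-marked siRNA can sensitise only weakly.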 Not all columns of the deposit are shown.
log2 vehicle/camptothecin viability,viability with camptothecin (% of control),call,gene knocked down,PubChem SID
-0.14,77.2,inactive,CYP27A1,SID164360890
-0.105,108,inactive,CYP27A1,SID164360892
-0.258,59.4,inactive,CYP27A1,SID164360893
-0.114,62.5,inactive,CYP27A1,SID164360894
0.0706,36.7,inactive,CYP20A1,SID164493946
0.0473,89,inactive,CYP20A1,SID164493947
0.9,5.84,inactive,CYP20A1,SID164493948
0.0176,71.6,inactive,CYP20A1,SID164493950
-0.241,26.2,inactive,LEP,SID164373683
0.313,13.3,inactive,LEP,SID164373684
-0.155,87,inactive,LEP,SID164373685
0.766,55.6,inactive,TNFRSF10A,SID164399885
-0.141,60.5,inactive,TNFRSF10A,SID164399886
-0.108,76.3,inactive,TNFRSF10A,SID164399887
-0.0739,36.4,inactive,TNFRSF10A,SID164399890
-0.188,79,inactive,ADAM2,SID164365457
0.692,64.7,inactive,ADAM2,SID164365460
0.752,10.9,inactive,ADAM2,SID164365461
-0.0798,123,inactive,ADAM2,SID164365462
-0.672,123,inactive,TUBGCP6,SID164548471
-0.0908,59.3,inactive,TUBGCP6,SID164548473
-0.185,88.7,inactive,TUBGCP6,SID164548475
-0.0541,43.2,inactive,TUBGCP6,SID164548479
-0.291,130,inactive,PROK2,SID164499778
0.0335,71.1,inactive,PROK2,SID164499781
-0.295,82.3,inactive,PROK2,SID164499782
-0.24,81.4,inactive,PROK2,SID164499783
-0.439,71.8,inactive,SQLE,SID164389662
-0.34,111,inactive,SQLE,SID164389664
-0.385,36,inactive,SQLE,SID164389666
0.0292,119,inactive,SQLE,SID164389667
-0.2,110,inactive,GLRX3,SID164411773
-0.451,90.4,inactive,GLRX3,SID164411774
-0.718,85.9,inactive,GLRX3,SID164411777
0.0216,76.7,inactive,ADCY1,SID164352303
-0.0918,84.5,inactive,ADCY1,SID164352304
-0.488,65.8,inactive,ADCY1,SID164352306
0.0954,83.8,inactive,ADCY1,SID164352307
-0.0957,73,inactive,TRERF1,SID164486972
-0.053,39.2,inactive,TRERF1,SID164486973
-0.137,110,inactive,TRERF1,SID164486976

Continued (3 carried over from the part before).
log2 vehicle/camptothecin viability,viability with camptothecin (% of control),call,gene knocked down,PubChem SID
-0.0957,73,inactive,TRERF1,SID164486972
-0.053,39.2,inactive,TRERF1,SID164486973
-0.137,110,inactive,TRERF1,SID164486976
-0.0802,59.4,inactive,LARGE1,SID164402458
0.0875,93.3,inactive,LARGE1,SID164402461
-0.549,56.3,inactive,LARGE1,SID164402462
0.269,72.7,inactive,PTK2B,SID164364273
-0.376,123,inactive,PTK2B,SID164364274
-0.312,104,inactive,PTK2B,SID164364275
-0.514,70.7,inactive,PTK2B,SID164364279
-0.0481,45.4,inactive,MPP4,SID164497331
0.221,106,inactive,MPP4,SID164497333
-0.103,49.2,inactive,MPP4,SID164497334
0.297,72,inactive,CACNA2D1,SID164356227
-0.242,55.8,inactive,CACNA2D1,SID164356228
-0.565,93.5,inactive,CACNA2D1,SID164356232
-0.0295,79.1,inactive,KCNAB3,SID164402320
-0.22,62.5,inactive,KCNAB3,SID164402322
0.227,38.4,inactive,KCNAB3,SID164402323
-0.0643,45.1,inactive,KCNAB3,SID164402324
-0.697,78.2,inactive,GNAI2,SID164366887
-0.36,55.3,inactive,GNAI2,SID164366890
-0.104,96.3,inactive,GNAI2,SID164366892
-0.311,80.4,inactive,GNAI2,SID164366893
-0.207,77.3,inactive,MATK,SID164374878
-0.264,80.4,inactive,MATK,SID164374879
0.338,65.3,inactive,MATK,SID164374880
-0.403,105,inactive,MATK,SID164374882
-0.391,81,inactive,SNAI1,SID164388958
0.177,62.6,inactive,SNAI1,SID164388960
-0.0909,81.1,inactive,SNAI1,SID164388961
